# No constants are given. Whether binding was seen depends on the method and setting. In cells and extracts the contact can be indirect. Here binding means that the protein was enriched with, or labelled near, the bait; the list need not be complete. For some assays here: A no says only that the protein was not detected with the bait.
# Amino acid sequences for entries named in this document (tags omitted).
# UniProt P63280: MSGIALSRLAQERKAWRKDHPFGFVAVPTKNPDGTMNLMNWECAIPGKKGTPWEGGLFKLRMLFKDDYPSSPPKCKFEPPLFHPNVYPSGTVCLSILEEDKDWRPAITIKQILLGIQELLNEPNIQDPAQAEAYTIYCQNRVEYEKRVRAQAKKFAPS
# Legend:
# [1] = molecular target: T1, Interferon regulatory factor 1 (IRF1), endogenous in ox-LDL loaded macrophages (mouse (endogenous in peritoneal macrophages)) (UniProt P15314); test: affinity purification with mass spectrometry; immunoprecipitation of IRF1 from ox-LDL loaded macrophages, control group without LPS treatment; co-precipitated proteins separated by SDS-PAGE and identified by mass spectrometry
# T1 sequence: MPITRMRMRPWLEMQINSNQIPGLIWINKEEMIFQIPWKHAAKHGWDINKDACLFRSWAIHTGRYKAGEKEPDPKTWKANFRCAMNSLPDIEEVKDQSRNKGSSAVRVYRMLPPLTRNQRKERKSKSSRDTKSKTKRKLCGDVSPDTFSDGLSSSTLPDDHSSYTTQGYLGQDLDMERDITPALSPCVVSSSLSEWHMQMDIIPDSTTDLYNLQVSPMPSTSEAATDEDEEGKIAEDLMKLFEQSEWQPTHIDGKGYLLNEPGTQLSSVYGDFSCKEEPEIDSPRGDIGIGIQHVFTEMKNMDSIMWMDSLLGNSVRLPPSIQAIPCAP
# [2] = molecular target: T1, Interferon regulatory factor 1 (IRF1), endogenous in ox-LDL loaded macrophages (mouse (endogenous in peritoneal macrophages)); test: affinity purification with mass spectrometry; immunoprecipitation of IRF1 from ox-LDL loaded macrophages challenged with LPS; co-precipitated proteins separated by SDS-PAGE and identified by mass spectrometry
substance,measurement,setting,value
"Ubc9, SUMO E2-conjugating enzyme, endogenous in ox-LDL loaded macrophages (from UniProt P63280 1-158)",binding,[1],binds
same,binding,[2],no binding (only with LPS challenge)
